Article doi:10.1101/2024.12.05.626995 (bioRxiv, 2024)
Results are given in words; binding and its absence hold for the method and conditions named. Some results given as binding are weak or reduced against the parent protein; the word gives no strength. Where a sequence is shown, tags or fusion partners need not be part of it.

Chains of the proteins cited; added tags and fusions are not shown. Residues count along the entry.
UniProt Q8LBP4, residues 57-462: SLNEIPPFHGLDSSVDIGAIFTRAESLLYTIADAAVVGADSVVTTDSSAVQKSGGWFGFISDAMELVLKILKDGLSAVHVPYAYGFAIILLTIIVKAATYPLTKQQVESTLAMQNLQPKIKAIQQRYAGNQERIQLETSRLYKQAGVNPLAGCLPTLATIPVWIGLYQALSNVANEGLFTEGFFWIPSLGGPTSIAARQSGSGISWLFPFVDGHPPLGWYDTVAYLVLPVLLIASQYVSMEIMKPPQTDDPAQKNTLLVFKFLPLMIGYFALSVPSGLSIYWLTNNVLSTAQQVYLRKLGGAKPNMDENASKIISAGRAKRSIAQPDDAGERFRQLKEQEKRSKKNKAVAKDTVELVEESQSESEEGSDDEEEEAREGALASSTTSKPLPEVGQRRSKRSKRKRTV
UniProt Q9FYL3, residues 46-499: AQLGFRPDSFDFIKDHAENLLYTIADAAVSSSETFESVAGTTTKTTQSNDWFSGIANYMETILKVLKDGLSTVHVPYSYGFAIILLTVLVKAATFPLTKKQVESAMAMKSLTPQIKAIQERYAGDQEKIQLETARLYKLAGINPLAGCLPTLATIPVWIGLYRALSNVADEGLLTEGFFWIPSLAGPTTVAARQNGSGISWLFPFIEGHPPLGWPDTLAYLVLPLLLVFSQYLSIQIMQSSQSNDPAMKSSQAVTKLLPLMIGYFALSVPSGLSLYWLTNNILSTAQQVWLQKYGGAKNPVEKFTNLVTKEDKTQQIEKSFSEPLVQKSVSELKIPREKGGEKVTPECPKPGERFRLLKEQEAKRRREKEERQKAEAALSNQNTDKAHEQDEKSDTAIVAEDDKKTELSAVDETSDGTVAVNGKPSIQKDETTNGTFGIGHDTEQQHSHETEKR

Key:
[1] = molecular target: Alb3-Cub (mature full-length Alb3 fused to the C-terminal half of ubiquitin) (Arabidopsis thaliana) (UniProt Q8LBP4); assay: two-hybrid
[2] = molecular target: Alb4-Cub (mature full-length Alb4 fused to the C-terminal half of ubiquitin) (Arabidopsis thaliana) (UniProt Q9FYL3); assay: two-hybrid

B1: NubG-Get3b (mature Get3b fused to a modified N-terminal half of ubiquitin) (protein, UniProt A1L4Y1 68-411)
chain: VASPTETISEFDEMVSGTKRKYYMLGGKGGVGKTSCAASLAVRFANNGHPTLVVSTDPAHSLSDSFAQDLTGGMLVPVEGPEAPLFALEINPEKAREEFRSASQMNGGTGVKDFMDGMGLGMLVEQLGELKLGELLDTPPPGLDEAIAISKVIQFLESPEYNMFTRIVFDTAPTGHTLRLLSLPDFLDASIGKILKLRQKITSATSAIKSVFGKEEKGPDAADKLEKLRERMVKVRELFRDTESTEFVIVTIPTVMAVSESSRLSASLKKESVPVKRLIVNQLLPPSSSDCKFCSIKRKDQMRALDMIREDSELSALTLMEAPLVDMEIRGVPALRFLGDIIWK
B1 was tested, and the binding [1] was “binds” and the binding [2] was “binds”.
